Measured data: PubChem BioAssay AID1259306 (Sanger Institute, 2017)

Purpose: 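Kinase-wide siRNA screen for partners of targeted drugs in colorectal cancer cells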 (primary screen)
System: human SNU-C5 colorectal cancer cells
Knock-down reagent: siRNA pool against human genes
Treatment: DMSO vehicle alone, or one anchor drug: BYL719 at 1 µM, cetuximab at 5 µg/ml or trametinib at 10 nM, given 24 h into the assay
Read-out: 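Replicate-averaged viability against non-targeting pool control, given as fraction and robust z-score; separate synergy scores for BYL719, cetuximab and trametinib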
Direction: robust z-score, knock-down alone: higher = more viable cells
Rule for the call: 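Called essential when the robust z-score for knock-down alone is below -3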
Calls: active = essential (knock-down alone); inactive = no change alone
The whole screen tested 794 reagents; shown is a part drawn at random. In the full data, 11 (1.4%) got an active call. 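Calls reflect knock-down alone; synergy scores play no part, so knock-downs synergising with a drug can be called no change.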 Not all columns of the deposit are shown. Reagent sequences are not shown. Not stated in the record: the amount of reagent, the time to read-out.

MYO3A (myosin IIIA): robust z-score, knock-down alone = -0.664; activity call = inactive
CSNK1A1 (casein kinase 1 alpha 1): robust z-score, knock-down alone = 0.489; activity call = inactive
MAPKAPK2 (MAPK activated protein kinase 2): robust z-score, knock-down alone = 0.696; activity call = inactive
PTK2B (protein tyrosine kinase 2 beta): robust z-score, knock-down alone = 0.989; activity call = inactive
GATA3 (GATA binding protein 3): robust z-score, knock-down alone = -0.876; activity call = inactive
TBX3 (T-box transcription factor 3): robust z-score, knock-down alone = 0.241; activity call = inactive
CDK20 (cyclin dependent kinase 20): robust z-score, knock-down alone = -2; activity call = inactive
DGKD (diacylglycerol kinase delta): robust z-score, knock-down alone = 0.633; activity call = inactive
KHK (ketohexokinase): robust z-score, knock-down alone = -0.545; activity call = inactive
ADCK1 (aarF domain containing kinase 1): robust z-score, knock-down alone = -0.868; activity call = inactive
XYLB (xylulokinase): robust z-score, knock-down alone = 0.983; activity call = inactive
ATM (ATM serine/threonine kinase): robust z-score, knock-down alone = -0.227; activity call = inactive
BCKDK (branched chain keto acid dehydrogenase kinase): robust z-score, knock-down alone = 0.77; activity call = inactive
SLK (STE20 like kinase): robust z-score, knock-down alone = 0.439; activity call = inactive
ITPK1 (inositol-tetrakisphosphate 1-kinase): robust z-score, knock-down alone = 0.989; activity call = inactive
WNK1 (WNK lysine deficient protein kinase 1): robust z-score, knock-down alone = 0.283; activity call = inactive
PRKD2 (protein kinase D2): robust z-score, knock-down alone = -0.0396; activity call = inactive

Continued; the last 4 above are carried over.
SLK (STE20 like kinase): robust z-score, knock-down alone = 0.439; activity call = inactive
ITPK1 (inositol-tetrakisphosphate 1-kinase): robust z-score, knock-down alone = 0.989; activity call = inactive
WNK1 (WNK lysine deficient protein kinase 1): robust z-score, knock-down alone = 0.283; activity call = inactive
PRKD2 (protein kinase D2): robust z-score, knock-down alone = -0.0396; activity call = inactive
ROCK1 (Rho associated coiled-coil containing protein kinase 1): robust z-score, knock-down alone = 0.989; activity call = inactive
HK2 (hexokinase 2): robust z-score, knock-down alone = 0.913; activity call = inactive
JAK3 (Janus kinase 3): robust z-score, knock-down alone = 0.989; activity call = inactive
NUP107 (nucleoporin 107): robust z-score, knock-down alone = -1.18; activity call = inactive
EEF2K (eukaryotic elongation factor 2 kinase): robust z-score, knock-down alone = -3.58; activity call = active
STKLD1 (serine/threonine kinase like domain containing 1): robust z-score, knock-down alone = 0.0986; activity call = inactive
PTGS1 (prostaglandin-endoperoxide synthase 1): robust z-score, knock-down alone = 0.571; activity call = inactive
LYN (LYN proto-oncogene, Src family tyrosine kinase): robust z-score, knock-down alone = 0.989; activity call = inactive
MAP3K8 (mitogen-activated protein kinase kinase kinase 8): robust z-score, knock-down alone = -0.835; activity call = inactive
PKIA (cAMP-dependent protein kinase inhibitor alpha): robust z-score, knock-down alone = 0.989; activity call = inactive
EPHA5 (EPH receptor A5): robust z-score, knock-down alone = 0.989; activity call = inactive
